Results are given in words; binding and its absence hold for the method and conditions named. Binding seen in cells or lysates may run through a third protein. These calls come from enrichment with a bait or labelling near it, and not all partners need be listed. For some assays here: Where a sequence is shown, tags or fusion partners need not be part of it.
How the values were obtained:
[1] = target: T1, ITFG2 (BioPlex 2.0 bait) (human) (UniProt Q969R8); assay: affinity purification with mass spectrometry; re-analysis of the raw MS data of BioPlex 2.0 (tagged bait refProts in HEK293T) with the OpenProt 1.6 library; 0.001% protein FDR, PepQuery validation, CompPASS and Naive Bayes classifier for high-confidence interacting proteins
T1 sequence: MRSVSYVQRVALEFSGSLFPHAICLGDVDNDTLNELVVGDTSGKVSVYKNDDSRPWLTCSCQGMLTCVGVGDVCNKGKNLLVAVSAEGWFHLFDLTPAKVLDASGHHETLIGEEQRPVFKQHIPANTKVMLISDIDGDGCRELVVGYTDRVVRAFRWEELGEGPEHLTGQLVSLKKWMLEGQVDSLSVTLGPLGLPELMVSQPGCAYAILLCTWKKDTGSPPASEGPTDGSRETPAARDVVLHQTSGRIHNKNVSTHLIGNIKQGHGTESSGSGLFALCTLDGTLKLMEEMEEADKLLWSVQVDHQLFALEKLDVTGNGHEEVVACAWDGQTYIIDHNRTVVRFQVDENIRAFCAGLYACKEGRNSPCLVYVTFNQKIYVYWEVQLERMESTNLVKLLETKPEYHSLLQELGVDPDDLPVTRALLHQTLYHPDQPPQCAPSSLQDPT

Sequences of proteins named here, by UniProt entry; tags and fusion partners are left off.
UniProt O14980: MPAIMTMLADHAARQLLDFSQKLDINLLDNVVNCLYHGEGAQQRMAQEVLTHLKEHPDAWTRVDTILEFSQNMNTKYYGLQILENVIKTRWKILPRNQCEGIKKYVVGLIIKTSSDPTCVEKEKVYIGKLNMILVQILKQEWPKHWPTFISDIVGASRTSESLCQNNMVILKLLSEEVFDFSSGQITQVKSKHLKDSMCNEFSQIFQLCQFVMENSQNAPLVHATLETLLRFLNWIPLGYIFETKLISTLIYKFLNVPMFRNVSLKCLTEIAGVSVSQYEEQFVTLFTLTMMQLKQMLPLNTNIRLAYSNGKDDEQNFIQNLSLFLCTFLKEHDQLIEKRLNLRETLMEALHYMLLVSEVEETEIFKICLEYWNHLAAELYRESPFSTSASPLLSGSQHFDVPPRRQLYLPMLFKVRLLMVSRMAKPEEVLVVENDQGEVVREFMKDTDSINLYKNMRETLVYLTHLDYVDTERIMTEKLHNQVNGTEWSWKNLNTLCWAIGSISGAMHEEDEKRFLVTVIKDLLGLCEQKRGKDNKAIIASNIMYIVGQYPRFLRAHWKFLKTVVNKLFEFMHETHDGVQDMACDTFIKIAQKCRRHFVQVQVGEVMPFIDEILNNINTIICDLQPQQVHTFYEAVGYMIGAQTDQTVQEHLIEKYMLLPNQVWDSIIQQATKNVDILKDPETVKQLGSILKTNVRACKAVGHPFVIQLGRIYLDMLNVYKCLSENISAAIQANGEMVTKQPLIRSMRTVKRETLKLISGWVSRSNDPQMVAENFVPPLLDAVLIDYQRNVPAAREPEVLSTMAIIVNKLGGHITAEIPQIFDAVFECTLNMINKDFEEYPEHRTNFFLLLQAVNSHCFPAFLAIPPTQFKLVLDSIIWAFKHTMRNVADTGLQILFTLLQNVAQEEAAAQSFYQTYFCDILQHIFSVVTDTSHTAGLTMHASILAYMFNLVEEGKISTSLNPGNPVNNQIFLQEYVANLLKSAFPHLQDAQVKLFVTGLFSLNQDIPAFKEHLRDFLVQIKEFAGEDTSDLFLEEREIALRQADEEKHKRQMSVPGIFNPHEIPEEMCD

[2] = target: T2, USP48 (BioPlex 2.0 bait) (human) (UniProt Q86UV5); assay: as above
T2 sequence: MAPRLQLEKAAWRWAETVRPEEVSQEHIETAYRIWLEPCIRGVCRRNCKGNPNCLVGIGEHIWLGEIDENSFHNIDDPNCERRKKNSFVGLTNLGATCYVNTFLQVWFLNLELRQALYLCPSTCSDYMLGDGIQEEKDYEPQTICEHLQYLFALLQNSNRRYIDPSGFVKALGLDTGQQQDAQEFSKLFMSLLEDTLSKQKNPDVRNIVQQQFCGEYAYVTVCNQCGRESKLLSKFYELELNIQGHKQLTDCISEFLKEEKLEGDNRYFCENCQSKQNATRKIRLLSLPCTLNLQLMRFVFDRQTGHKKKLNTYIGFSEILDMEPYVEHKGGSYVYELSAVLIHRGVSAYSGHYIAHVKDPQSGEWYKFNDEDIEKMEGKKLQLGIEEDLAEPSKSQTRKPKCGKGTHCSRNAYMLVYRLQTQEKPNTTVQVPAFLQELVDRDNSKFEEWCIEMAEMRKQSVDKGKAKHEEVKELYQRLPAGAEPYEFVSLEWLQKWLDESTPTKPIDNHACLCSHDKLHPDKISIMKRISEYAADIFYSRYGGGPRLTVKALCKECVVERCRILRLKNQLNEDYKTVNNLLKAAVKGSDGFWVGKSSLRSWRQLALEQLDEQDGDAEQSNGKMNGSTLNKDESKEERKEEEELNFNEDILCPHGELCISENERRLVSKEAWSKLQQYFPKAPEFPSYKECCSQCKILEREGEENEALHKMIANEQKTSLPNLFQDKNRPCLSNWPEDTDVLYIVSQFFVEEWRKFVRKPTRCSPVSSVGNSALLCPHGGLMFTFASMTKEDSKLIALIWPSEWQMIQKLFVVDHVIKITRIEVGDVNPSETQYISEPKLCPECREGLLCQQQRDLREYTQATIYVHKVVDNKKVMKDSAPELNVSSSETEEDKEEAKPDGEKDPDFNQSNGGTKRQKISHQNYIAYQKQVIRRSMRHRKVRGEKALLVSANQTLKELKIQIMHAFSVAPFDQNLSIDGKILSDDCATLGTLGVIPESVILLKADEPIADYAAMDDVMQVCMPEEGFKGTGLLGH

PHB1-GFP (human) = target: T3, PHB1-GFP (human) (UniProt P35232); assay: affinity purification with mass spectrometry; PHB-GFP as bait on agarose ChromoTek GFP beads; HEK293 lysate (150 mM NaCl, 50 mM Tris-HCl, 1% Triton), 4 h at 4 °C; three independent AP-MS; scored with SAINT
T3 sequence: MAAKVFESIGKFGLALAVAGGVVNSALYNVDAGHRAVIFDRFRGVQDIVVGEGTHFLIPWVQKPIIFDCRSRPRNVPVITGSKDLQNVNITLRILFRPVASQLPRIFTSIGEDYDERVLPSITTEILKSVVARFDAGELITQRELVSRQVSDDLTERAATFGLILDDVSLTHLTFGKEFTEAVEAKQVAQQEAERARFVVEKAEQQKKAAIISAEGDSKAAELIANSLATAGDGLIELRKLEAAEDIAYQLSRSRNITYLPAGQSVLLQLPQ

[3] = target: T4, PHB1 (BioPlex 2.0 bait) (human) (UniProt P35232); assay: affinity purification with mass spectrometry; re-analysis of the raw MS data of BioPlex 2.0 (tagged bait refProts in HEK293T) with the OpenProt 1.6 library; 0.001% protein FDR, PepQuery validation, CompPASS and Naive Bayes classifier for high-confidence interacting proteins
T4 sequence: T3 sequence

## IP_602155 (human (endogenous in HEK293T))
[1]
  binding: binds

## IP_710744 (human (endogenous in HEK293T))
[2]
  binding: binds

## IP_762813 (human (endogenous in HEK293T and HEK293))
PHB1-GFP (human)
  binding: binds
[3]
  binding: binds

## XPO1 (from UniProt O14980 1-1071)
PHB1-GFP (human)
  binding: binds
